Laboratory results published in the supplement of paper PMC3334620.
In all, about 33,000 sequences were measured (“E-score (-0.5 to 0.5)”: median about -0.016, highest 2% from about 0.3 on). Some of the results follow.

Biological target: T1, Yer184c (UniProt P39961)
T1 sequence: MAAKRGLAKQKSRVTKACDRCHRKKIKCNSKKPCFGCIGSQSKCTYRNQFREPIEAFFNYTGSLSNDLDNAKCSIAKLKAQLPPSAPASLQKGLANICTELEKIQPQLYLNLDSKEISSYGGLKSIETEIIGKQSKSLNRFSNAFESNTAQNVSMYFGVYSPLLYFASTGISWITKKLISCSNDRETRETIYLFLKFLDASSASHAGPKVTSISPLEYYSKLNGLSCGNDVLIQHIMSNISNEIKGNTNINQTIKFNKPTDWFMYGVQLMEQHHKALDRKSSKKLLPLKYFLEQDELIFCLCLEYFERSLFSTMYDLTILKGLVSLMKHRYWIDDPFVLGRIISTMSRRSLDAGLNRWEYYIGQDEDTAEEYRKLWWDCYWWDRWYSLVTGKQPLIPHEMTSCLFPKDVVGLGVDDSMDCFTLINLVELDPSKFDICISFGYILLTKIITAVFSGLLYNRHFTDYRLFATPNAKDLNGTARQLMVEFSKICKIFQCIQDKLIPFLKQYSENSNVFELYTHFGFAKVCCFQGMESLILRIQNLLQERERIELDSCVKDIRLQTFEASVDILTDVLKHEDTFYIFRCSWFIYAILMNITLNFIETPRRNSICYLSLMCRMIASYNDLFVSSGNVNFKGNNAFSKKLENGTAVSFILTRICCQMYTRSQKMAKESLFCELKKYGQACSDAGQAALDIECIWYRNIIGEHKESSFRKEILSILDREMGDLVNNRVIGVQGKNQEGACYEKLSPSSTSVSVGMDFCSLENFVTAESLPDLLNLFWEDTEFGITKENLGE
Assay: PBM E-score (8-mer binding enrichment) (E-score (-0.5 to 0.5)); higher = stronger / more preferred TF binding
Details: protein concentration: 100 nM; construct: GST-full length
Outline: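 PURExpress in vitro transcription/translation supplied GST-tagged yeast transcription factors, either full-length or DNA-binding domain. Applied at about 100-200 nM to universal all-10-mer Agilent arrays double-stranded by primer extension, the bound protein was detected with fluorescent anti-GST. E-scores, modified Wilcoxon-Mann-Whitney statistics, were given by the Universal PBM Analysis Suite to ungapped eight-base words pooled with their reverse complements after masliner normalisation.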

| Sequence | PBM E-score |
| --- | --- |
| ATGACAGA | 0.00579 |
| ATTACAGG | 0.187 |
| ACATATAA | 0.23 |
| GTTAGCCA | -0.00093 |
| AACTACGT | -0.158 |
| TAGTGCAA | 0.125 |
| CATAACGA | -0.0902 |
| ATGTGTGC | -0.238 |
| CTTGCGGA | 0.0397 |
| CGCAATAA | 0.186 |
| ATCTAAGA | 0.0758 |
| ACGTAACA | -0.016 |
| GGACCGAA | 0.353 |
| AAGGGAAC | -0.176 |
| ACGGCCGT | 0.176 |
| CGGAGGAG | -0.0956 |
| ACGCTCGG | 0.235 |
| AACGCCCT | -0.246 |
| CAACAGCG | -0.182 |
| CAAATCGC | -0.0704 |
| CTTAAGTC | -0.0503 |
| GAGGGACC | -0.317 |

| Sequence | PBM E-score |
| --- | --- |
| CAAGGAGA | -0.126 |
| AAAACGAT | -0.0684 |
| CCGAACCG | 0.329 |
| AGCGACAT | -0.0945 |
| ATTATACA | 0.147 |
| GCCGGCAC | 0.422 |
| GGATGCAC | -0.121 |
| ATTCGAAA | 0.0914 |
| AGTTGGTC | -0.0511 |
| GGGGCCAC | -0.226 |
| ACAGAAAG | -0.0226 |
| AGAGTGTC | 0.219 |
| ATATGCAT | 0.0424 |
| GTATAGTA | 0.115 |
| CAGGTCCC | -0.231 |
| AGCACATG | 0.089 |
| CTCAAAGA | -0.0579 |
| GGCGGTGA | -0.124 |
| ACCTTTAC | -0.0262 |
| CGCGCCCA | -0.0609 |
| TAACTTAA | 0.231 |
| TATCAACA | 0.0798 |

Given with each value named: part of the list above
CAAGGAGA
  PBM E-score: -0.126
AAAACGAT
  PBM E-score: -0.0684
CCGAACCG
  PBM E-score: 0.329
AGCGACAT
  PBM E-score: -0.0945

The list goes on.

| Sequence | PBM E-score |
| --- | --- |
| ACGGCTAA | 0.233 |
| GCAGTCGA | -0.114 |
| AACAGTGC | -0.091 |
| CTTAATAA | 0.205 |
| GAGACAAA | -0.086 |
| CACGAGTG | -0.162 |
| GAAATAAC | 0.198 |
| CATAGTCG | -0.0259 |
| CTGGTAGC | -0.148 |
| AAGAATGC | 0.00719 |
| CGTATTGA | -0.0164 |
| ACCCTCCG | -0.182 |
| ACCGGACG | 0.305 |
| GTGGTAAC | 0.0465 |
| AGCGCTTG | -0.0179 |
| CGTCAAAA | 0.129 |
| ATATGGAA | 0.00789 |
| TAAAAATA | 0.28 |
| AATCTCGT | 0.0258 |
| CCTCACAA | 0.158 |
| AGTTCAGC | -0.0919 |
| ATGAAGTA | -0.0122 |

| Sequence | PBM E-score |
| --- | --- |
| CGATTGGA | -0.0892 |
| GTCGTCAA | 0.05 |
| GAATATAC | 0.0307 |
| CAAGGACA | -0.0757 |
| AACAACAG | 0.0934 |
| ATATCTTG | 0.0464 |
| GGGCACTA | -0.185 |
| ACTATAAA | 0.145 |
| AATCGACG | -0.101 |
| CAGCGTTC | -0.12 |
| AATGTATA | 0.126 |
| GCATGGAA | 0.0947 |
| ACGTGACA | -0.138 |
| ACTACTCT | -0.069 |
| GACCGAGC | 0.101 |
| ACTGGACA | 0.0365 |
| ACACCGAA | 0.221 |
| GTCCGTCA | 0.179 |
| AGCGTCTA | -0.152 |
| AGAAACCT | -0.118 |
| CTTCAAAA | 0.137 |
| CAGTCAGC | -0.19 |

| Sequence | PBM E-score |
| --- | --- |
| AAAATGGA | 0.189 |
| GAATCGAA | 0.151 |
| ACTCAATA | 0.146 |
| CATGTACG | -0.0476 |
| GCTTTATA | -0.0149 |
| GCAATAAC | -0.0207 |
| GACCGACA | 0.0769 |
| ATAGTATA | 0.0999 |
| AATAGGAC | -0.12 |
| AATCGTAC | 0.0599 |
| AACACTAT | 0.28 |
| AGTGTCAC | -0.0331 |
| AGAGTAAG | -0.0171 |
| CCGTGCAA | 0.107 |
| GGATGACC | -0.201 |
| AGCAGCAC | -0.0879 |
| TACAACTA | 0.171 |
| ATGAAACA | 0.02 |
| AGGGGTCG | -0.34 |
| CTGCTGAA | 0.0515 |
| CTGTCGTC | 0.0244 |
